This is one part of the list.

The test addresses T1, OsSMF1 (Oryza sativa, UniProt Q6ZLB0 1-436).
T1 sequence: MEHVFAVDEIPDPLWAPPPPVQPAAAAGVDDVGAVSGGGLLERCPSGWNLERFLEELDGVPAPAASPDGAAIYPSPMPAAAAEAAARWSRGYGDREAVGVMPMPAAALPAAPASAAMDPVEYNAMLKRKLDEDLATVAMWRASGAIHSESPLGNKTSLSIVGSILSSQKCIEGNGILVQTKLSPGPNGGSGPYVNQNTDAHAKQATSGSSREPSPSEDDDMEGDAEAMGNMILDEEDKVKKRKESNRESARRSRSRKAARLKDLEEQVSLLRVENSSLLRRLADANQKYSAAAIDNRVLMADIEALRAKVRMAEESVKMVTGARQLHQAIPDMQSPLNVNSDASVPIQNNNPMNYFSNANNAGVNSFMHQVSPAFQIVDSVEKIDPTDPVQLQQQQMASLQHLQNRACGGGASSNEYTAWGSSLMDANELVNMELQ
Description: protein-binding microarray (RPBM); PBS, 2% BSA, 51.3 ng/ul salmon testes DNA, 50 uM zinc acetate, 200 nM TF, 25 C, 1 h; high values mean tight binding. Conditions: protein: recombinant; tags: N-terminal polyhistidine and DsRed monomer fusion (pET32a); chain copies: 2; label: CyDye5-dUTP incorporated in the synthesized complementary strand; 3' TTTTT single-stranded linker to array surface; dsDNA, one strand shown. The essentials:
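Binding signal is defined as the fluorescence intensity of each feature in arbitrary units, read on an Axon 4000B scanner. Transcription factors with N-terminal polyhistidine and DsRed fusions came from E. coli BL21-CodonPlus and were purified on Ni–NTA. They were incubated at 200 nM for 1 h at 25 °C on a custom Agilent array that had been made double-stranded with Cy5-dUTP, with 50 µM zinc acetate present, and the array was washed.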
In the case of “ATCAACGTATCTAAACCGGATGGAAACACGTATCTAAACACGGAGTCACCTAGTGCAG”, the binding signal is 6180 fluorescence intensity (a.u.).
Turning to “TCCTCACCCTCTCGCCACGTCTGCTTCGATCCCTTCTCCTCGGAGTCACCTAGTGCAG”, the binding signal was 10800 fluorescence intensity (a.u.).
As to “GACCCTGCCGCCCTCCATTTGGGCGGCAAGCTGACGTGGCCGGAGTCACCTAGTGCAG”, the binding signal was 32700 fluorescence intensity (a.u.).
As for “TTTATATTCCAACCTTTGCTTCAACCATACTCCAGTTGTACGGAGTCACCTAGTGCAG”, the binding signal was 4050 fluorescence intensity (a.u.).
For the sequence “TGTGACCGGTTTTGATTAGTTAAGGGACGCCGGGTATCTGCGGAGTCACCTAGTGCAG”, the binding signal is 31600 fluorescence intensity (a.u.).
With “ATTCTGCAACATTGACTAGACTCTTCTATATTGTTAATCTCGGAGTCACCTAGTGCAG”, the binding signal was 3250 fluorescence intensity (a.u.).
Turning to “AATTCTAGGTCCAGCACTGTGCTTACCTGTATAGAAGCCTCGGAGTCACCTAGTGCAG”, the binding signal was 3200 fluorescence intensity (a.u.).
In the case of “ACTTTATCCTCTCCCACGTCGCCAGCGTTCCCTTGTTGCTCGGAGTCACCTAGTGCAG”, the binding signal is 4530 fluorescence intensity (a.u.).
Regarding “TATTTTCCTTAACATTCGTGTCTTCTGAGTGTGACGCGTGCGGAGTCACCTAGTGCAG”, the binding signal is 4280 fluorescence intensity (a.u.).
Then “TACTTAATCTGTTGTTATCCAGCTATCTTACACGTTATTTCGGAGTCACCTAGTGCAG”, with 3910 fluorescence intensity (a.u.); and “ATTAGTCGATCTAGGTTCGAGTTTCGCCCCTTTCTCAATACGGAGTCACCTAGTGCAG”, with 7770 fluorescence intensity (a.u.); and “CGTGCACGTGTTCACCGGAGGTGCTCGTCAGCAAAGCAGGCGGAGTCACCTAGTGCAG”, with 6000 fluorescence intensity (a.u.).
“TACCAATGCACCAACAAATGAGTCATTGACCACCCAATTGCGGAGTCACCTAGTGCAG”: the binding signal is 8470 fluorescence intensity (a.u.).
For “ACCACTCTACCACAACCATTACGCTATCCGCCACGAGCAACGGAGTCACCTAGTGCAG”, the binding signal was 3270 fluorescence intensity (a.u.).
With “CGGCGTCCACGCTCATCACCGTCTCCACCAACGCCTCGTCCGGAGTCACCTAGTGCAG” the figure was 3740 fluorescence intensity (a.u.).
Then “AGAATACGTATTATGCTCAAATACGCCTTCGCGTGGCGGTCGGAGTCACCTAGTGCAG”, with 3320 fluorescence intensity (a.u.); and “GCGCAAAGCAGCCGCGGTCAGCAGCATCACACACTGCAGCCGGAGTCACCTAGTGCAG”, with 4880 fluorescence intensity (a.u.); and “AAACAAACTCTGTGTTGTTGGTGATTGTATTCTCTCCTTGCGGAGTCACCTAGTGCAG”, with 3260 fluorescence intensity (a.u.).
Then “TATGGTTGGGGATGATTTTGTATCTTAGATGACAAGTTGACGGAGTCACCTAGTGCAG”, with 3320 fluorescence intensity (a.u.); and “AAATTCTTACTGATGTGTCATGCTACAATCGAATCGTGAACGGAGTCACCTAGTGCAG”, with 5230 fluorescence intensity (a.u.).
For “CAGCAGCATGACCCGTTCCTGGCCGCCTACGTGGCGTGCACGGAGTCACCTAGTGCAG”, the binding signal was 19400 fluorescence intensity (a.u.).
As to “GAAAAGAGAGTGTGCACGCGGACGTGGCATCTGGCATGTGCGGAGTCACCTAGTGCAG”, the binding signal is 10500 fluorescence intensity (a.u.).
Turning to “ATGTTGTATTATATAGAAATGACATGTCCTGGATGCATTCCGGAGTCACCTAGTGCAG”, the binding signal was 4310 fluorescence intensity (a.u.).
For the sequence “AAGTTGAAAATGTTTTCGCTGATATTTTGATACGTTGTTCCGGAGTCACCTAGTGCAG”, the binding signal was 6640 fluorescence intensity (a.u.).
As to “AAATACATCCAAGAACACAATATATTCCAATATTTTGTCACGGAGTCACCTAGTGCAG”, the binding signal was 34500 fluorescence intensity (a.u.).
As to “TTCTAGCGTGTCTTGGCTGGCGACCGTTACAGTCAGCCAGCGGAGTCACCTAGTGCAG”, the binding signal is 3600 fluorescence intensity (a.u.).
For the sequence “CTTGGCAATTGGGCTCTTGAAAACCTGGTGCACAGTCTCACGGAGTCACCTAGTGCAG”, the binding signal was 26600 fluorescence intensity (a.u.).
For the sequence “GGGTCGTCGTGAAGTTGGCGTTGGTGGTCATGGACGTGGACGGAGTCACCTAGTGCAG”, the binding signal is 3420 fluorescence intensity (a.u.).
Regarding “CATTGGCTGCCTCTTCTTTCTCTGATGGACTCTAAACCCTCGGAGTCACCTAGTGCAG”, the binding signal is 24800 fluorescence intensity (a.u.).
With “CTACCTTTTGAATTGTTAGAGATGAGTCATCTGGAATAAGCGGAGTCACCTAGTGCAG” the figure was 5090 fluorescence intensity (a.u.); with “CTTGCTCGATCGTGGTCCATGAACTGATCATCAGAAGGTACGGAGTCACCTAGTGCAG”, 24700 fluorescence intensity (a.u.); with “CTGGTGCGCGAGCGCGACCCCGTCTGCGCCGGCGGTGGAGCGGAGTCACCTAGTGCAG”, 3500 fluorescence intensity (a.u.).
“GGTACAGTACGTATGACTAGGTACAAGTAGTTTAGGTTGACGGAGTCACCTAGTGCAG”: the binding signal is 3950 fluorescence intensity (a.u.).
As for “TAGCAGTTTCGGTAGGTTGTGTGGCGTGGTCACCTTTGCTCGGAGTCACCTAGTGCAG”, the binding signal is 3790 fluorescence intensity (a.u.).
Then “GAATCTACTGGGCATTTCGTCAAACAGCTCATCTGCGCCCCGGAGTCACCTAGTGCAG”, with 3590 fluorescence intensity (a.u.); and “CGCCTCGTCCATGTCTGGATGTCGCTGTCGTCACGTCTCCCGGAGTCACCTAGTGCAG”, with 4400 fluorescence intensity (a.u.).
Take “CCTATTCCTTGTCACCACTGCCCAGCCCATACACGGCCCACGGAGTCACCTAGTGCAG”: the binding signal was 3870 fluorescence intensity (a.u.).
Turning to “TCCCTCCTTGCTAACTAGGATGTCACGTCAGGACTTGAACCGGAGTCACCTAGTGCAG”, the binding signal was 3570 fluorescence intensity (a.u.).
Then “TCTCCACGTATCCCCAGTTGCCGACGTGGACGGTCAGATCCGGAGTCACCTAGTGCAG”, with 17800 fluorescence intensity (a.u.); and “ATTACATTGTCTCAACAATTTCTCCACATACTCATGTCAACGGAGTCACCTAGTGCAG”, with 3520 fluorescence intensity (a.u.); and “TGTTAACCAAATAGCTCTAGATACCGCGGAATAGACGTGACGGAGTCACCTAGTGCAG”, with 3290 fluorescence intensity (a.u.).
“TATATGAACAACAAGGATATATATCTTGCTGATGACAGTGCGGAGTCACCTAGTGCAG”: the binding signal was 3720 fluorescence intensity (a.u.).
